Measurements as given in US20250170176A1, “METHODS OF TREATMENT WITH CAR CELLS IN COMBINATION WITH S1P RECEPTOR MODULATORS” (PRIOTHERA SAS, priority 2022, published 2025).
At least one compound was matched to its structure with a doubt left.

Tested on: transformed pro-B cells (leukemia tumor cells)
Assay: Survival of leukemia mice given CAR T cells with or without KRP203 (Example 1)
Assay type: in vivo, mouse (C57BL/6J)
Conditions: combination of CAR T cells and KRP203 versus untreated or CAR T cells alone

For `NC(CO)(CO)CCc1ccc(Sc2cccc(OCc3ccccc3)c2)cc1Cl` [mocravimod, 2-amino-2-[4-(3-benzyloxyphenylthio)-2-chlorophenyl]ethyl-propane-1,3-diol], the survival of mice was “statistically significant survival benefit”.
